This is an account of results in publication PMC6329795.

The experiment has as its target kinetoplast polyadenylation factor 4 (KPAF4) (Trypanosoma brucei). As to the kind of experiment: co-IP; tandem affinity purification of KPAF4-TAP from mitochondrial extract (mock and RNase I-treated; parental 29-13 line as control); final fractions immunoblotted, REL1/REL2 detected by self-adenylation with [alpha-32P]ATP. Background: In western blotting, separated proteins are transferred to a membrane and probed.

These are yes or no findings as the source states them, for the method shown. In cells and extracts the contact can be indirect. Binding calls can cover weak binding; strength is not graded here.

B1: REL1 RNA ligase (RNA editing core complex, RECC) (enzyme, UniProt P86927 45-469)
chain: YMPLPNDQSDFSPYIEIDLPSESRIQSLHKSGLAAQEWVACEKVHGTNFGIYLINQGDHEVVRFAKRSGIMDPNENFFGYHILIDEFTAQIRILNDLLKQKYGLSRVGRLVLNGELFGAKYKHPLVPKSEKWCTLPNGKKFPIAGVQIQREPFPQYSPELHFFAFDIKYSVSGAEEDFVLLGYDEFVEFSSKVPNLLYARALVRGTLDECLAFDVENFMTPLPALLGLGNYPLEGNLAEGVVIRHVRRGDPAVEKHNVSTIIKLRCSSFMELKHPGKQKELKETFIDTVRSGALRRVRGNVTVISDSMLPQVEAAANDLLLNNVSDGRLSNVLSKIGREPLLSGEVSQVDVALMLAKDALKDFLKEVDSLVLNTTLAFRKLLITNVYFESKRLVEQKWKELMQEEAAAQSEAIPPLSPAAPTKGE
With B1, the binding entry was “binds”.
